Results are given in words; binding and its absence hold for the method and conditions named. Binding seen in cells or lysates may run through a third protein. Binding can be weak; no strength is given. Tags and fused reporters may be left off the sequences shown.
Biological target: T1, Arabidopsis thaliana mitochondrial pyruvate carrier 1 (AtMPC1), Flag-tagged (Arabidopsis thaliana) (UniProt Q949R9)
T1 sequence: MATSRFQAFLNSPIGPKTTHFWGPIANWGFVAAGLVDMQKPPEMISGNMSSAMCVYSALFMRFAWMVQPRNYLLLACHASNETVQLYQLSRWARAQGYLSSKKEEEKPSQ
Assay: co-IP; MPC1-Flag and NRGA1-MYC co-expressed in tobacco (N. benthamiana) leaves; extract in 50 mM Tris-HCl pH 8.0, 150 mM NaCl, 1% Triton X-100; precipitated with anti-Flag antibody and protein A agarose, 4 °C; immunoblot with anti-MYC

binding: binds
Substance: Negative Regulator of Guard cell ABA signaling 1 (NRGA1), MYC-tagged (Arabidopsis thaliana)
